The assay is described as follows: qHTS Assay for Modulators of Lamin A Splicing. Particulars: HeLa LMNA splicing GFP/RFP minigene ratio, 48 h. The method in brief: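 Read-out is the ratio of GFP to DsRed2 object intensity, acquired by 488 nm laser-scanning cytometry on HeLa lamin A-EGFP minigene reporter cells. Compound incubation 48 hrs at 37 °C in Opti-MEM with 2% FBS; DMSO 0.5% final.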
On the technique in general: In qHTS, concentration-response curves come from the screen itself.

The mark [1] stands for this setting: measured here: GFP splicing reporter channel.
[2] abbreviates: measured here: RFP viability control channel.

The other results are listed elsewhere or left out. Further columns of the screen follow, without active or inactive calls. The list favours compounds with an active or inconclusive main result. The note in brackets gives the kind of curve behind each potency; many fits are weak.

For `COc1ccccc1OCC(O)Cn1c(=N)n(Cc2ccccc2)c2ccccc21` (stereo unspecified), the AC50 (as a rule, the midpoint of the concentration-response curve, whichever way the signal moves) is, setting by setting: under setting [1], 25.1 µM [rising, partial curve, poor fit]; under setting [2], 15.8 µM [rising, single point].

Regarding `CCOC(=O)C1=C(C)NC(=O)NC1c1ccc(OC)c(Cl)c1` (stereo unspecified), under setting [1], the AC50 was 11.2 µM [rising, single point]. As to `CN(C)S(=O)(=O)c1cccc(NC(=O)c2cc(-c3cccs3)nc3ccccc23)c1`, the AC50 under setting [2] was 14.1 µM [rising, single point]. `COC(=O)c1c(C)[nH]c(-c2csc(N)n2)c1C`: the AC50 under setting [2] was 35.5 µM [rising, single point]. In the case of `O=C(NC1CCCC1)C(=O)N(Cc1cccnc1)C(C(=O)NCc1ccco1)c1ccccc1F` (stereo unspecified), the AC50 was 17.8 µM [rising, single point] under setting [1] and 15.8 µM [rising, single point] under setting [2]. `O=c1c(Cc2ccc(Cl)cc2Cl)c(O)ccn1CCCN1CCOCC1`: under setting [1], the AC50 is 1.12 µM [falling, full curve]. `COC(=O)/C(=C1/Oc2cc(C)oc(=O)c2S1)C(F)(F)F`: the concentration at half-maximal activity (AC50) under setting [1] was 25.1 µM [falling, single point] and the concentration at half-maximal activity (AC50) under setting [2] was 17.8 µM [falling, single point].

Turning to `CCN(CC)c1ccc(NC(=O)C2COc3ccc(OC)cc3C2)c(C)c1` (stereo unspecified), the concentration at half-maximal activity (AC50) under setting [2] was 2.51 µM [rising, partial curve].

Regarding `Cn1c(SCc2ccc(C(C)(C)C)cc2)nnc1C1COc2ccccc2O1` (stereo unspecified), under setting [2], the AC50 was 35.5 µM [falling, single point]. As for `O=c1c2c([nH]c3ccccc13)C(=C1CCCC1)CC2`, the half-maximal activity concentration (AC50) is 2.82 µM [rising, full curve, poor fit] under setting [1] and 8.91 µM [rising, partial curve] under setting [2]. In the case of `O=C(Nc1ncc(Cc2cccc(C(F)(F)F)c2)s1)c1ccc(-c2cccc([N+](=O)[O-])c2)o1`, the AC50 under setting [1] is 3.98 µM [rising, full curve] and the concentration at half-maximal activity (AC50) under setting [2] was 6.31 µM [rising, full curve]. Regarding `O=C1CCC(C(=O)Nc2nnc(C3CC3)s2)=NN1`, the concentration at half-maximal activity (AC50) under setting [1] was 0.00447 µM [falling, full curve, poor fit]. `CCNc1nc(NCC)n2c(SCC(=O)Nc3ccccc3[N+](=O)[O-])nnc2n1`: under setting [1], the AC50 was 5.01 µM [rising, full curve, poor fit]. Turning to `CC(Nc1ccc(Br)cc1)C(=O)N/N=C/c1ccccc1OCc1ccccc1` (stereo unspecified), the AC50 runs as follows: under setting [1], 22.4 µM [rising, single point]; under setting [2], 28.2 µM [rising, single point]. For the molecule `Cc1ccc(C)c(/C=C/C(=O)c2ccccc(=O)c2O)c1`, the concentration at half-maximal activity (AC50) under setting [2] was 20 µM [rising, partial curve, poor fit]. Take `CC[C@H](C)[C@H](NC(=O)OCc1ccccc1)C(=O)Nc1ccc(NC(C)=O)cc1`: the AC50 was 2.51 µM [falling, partial curve, poor fit] under setting [1] and 2.82 µM [falling, full curve] under setting [2]. Consider `Cc1cccc(C)c1NC(=S)NCCSc1ccc(Cl)cc1`, for which the concentration at half-maximal activity (AC50) is, setting by setting: under setting [1], 0.00447 µM [falling, full curve, poor fit]; under setting [2], 0.00355 µM [falling, full curve, poor fit]. In the case of `Cc1cc(C)c(C#N)c(N2CCN(Cc3ccc4c(c3)OCO4)CC2)n1`, the AC50 is 5.62 µM [rising, partial curve, poor fit] under setting [1] and 11.2 µM [rising, partial curve] under setting [2]. As for `CC(=O)c1c(C)[nH]c(C(=O)OCC(=O)NCCc2ccc(F)cc2)c1C`, the AC50 by setting is: under setting [1], 12.6 µM [rising, partial curve]; under setting [2], 14.1 µM [rising, partial curve]. Turning to `C=CCn1c(SCc2csc(-c3ccc(Cl)cc3)n2)nnc1-c1ccccc1OC`, the half-maximal activity concentration (AC50) under setting [2] was 35.5 µM [rising, single point]. In the case of `Cc1c(C(=O)N(C)c2cccc(C(F)(F)F)c2)sc2nc3n(c(=O)c12)CCCCC3`, the AC50 under setting [2] is 14.1 µM [rising, partial curve, poor fit]. On to `Cc1ccc2nc(SCCCCOc3ccccc3)[nH]c2c1`, for which the AC50 under setting [1] was 35.5 µM [falling, single point] and the AC50 under setting [2] was 25.1 µM [falling, single point]. As for `N#CNC(=Nc1cccc(F)c1)SCc1cccc(F)c1`, the half-maximal activity concentration (AC50) reads like this: under setting [1], 35.5 µM [rising, single point]; under setting [2], 20 µM [rising, single point]. Consider `COc1cc(CC(=O)NCCc2ccc(S(N)(=O)=O)cc2)cc(OC)c1OC`, for which the concentration at half-maximal activity (AC50) is, setting by setting: under setting [1], 3.98 µM [falling, partial curve]; under setting [2], 11.2 µM [falling, partial curve]. In the case of `Cc1[nH]n(-c2ccccc2)c(=O)c1-c1ccc(Cl)cc1`, the AC50 under setting [2] is 12.6 µM [rising, single point]. On to `CCn1c(CN2CCOCC2)nc2cc(NC(=O)c3cc(OC)c(OC)c(OC)c3)ccc21`, for which the AC50 was 0.1 µM [falling, full curve] under setting [1] and 0.00316 µM [falling, full curve, poor fit] under setting [2]. On to `CC(C)C(=O)N=C1SC2CS(=O)(=O)CC2N1Cc1ccccc1` (stereo unspecified), for which the half-maximal activity concentration (AC50) under setting [1] is 35.5 µM [rising, single point]. As for `NCCCC(O)(P(=O)(O)O)P(=O)(O)O`, the AC50 runs as follows: under setting [1], 35.5 µM [falling, single point]; under setting [2], 3.55 µM [rising, full curve, poor fit]. In the case of `COc1cccc(S(=O)(=O)Nc2cccc(C(=O)N3CCCCCC3)c2)c1`, the AC50 was 14.1 µM [rising, partial curve, poor fit] under setting [1] and 14.1 µM [rising, partial curve] under setting [2]. As for `O=c1c2ccccc2nc(-c2cccc(Cl)c2)n1O`, the AC50 under setting [2] was 31.6 µM [rising, single point]. Same read-out and setting: with `COc1ccc(C(=O)CCN2CCc3cc(OC)c(OC)cc3C2)cc1` the figure was 6.31 µM [falling, full curve]. For `CCC(c1nnnn1Cc1ccco1)N(CCc1ccccc1)Cc1cc2ccc(OC)cc2[nH]c1=O` (stereo unspecified), the AC50 was 14.1 µM [rising, single point] under setting [1] and 14.1 µM [rising, single point] under setting [2]. In the case of `O=S(=O)(NCc1ccc(F)cc1)c1cccc(S(=O)(=O)N2CCOCC2)c1`, the AC50 under setting [2] is 1.41 µM [falling, full curve, poor fit]. Regarding `CCOc1ccc(NC(=O)c2ccc(F)c(S(=O)(=O)NCc3ccc4c(c3)OCO4)c2)cc1`, the AC50 under setting [1] was 22.4 µM [falling, partial curve, poor fit].

For the origin of these results see PubChem BioAssay AID1487 (National Center for Advancing Translational Sciences (NCATS), 2009).
